Laboratory results published in paper PMC2775917.
These are yes or no findings as the source states them, for the method shown. In cells and extracts the contact can be indirect. Some entries that bind do so weakly or less than the wild type. Where a sequence is shown, tags or fusion partners need not be part of it.

Protein sequences, listed by entry. Tags and fused reporters are not part of them. Lines headed by an entry give the natural chain unless they say otherwise; changes in a name come on top. Chains listed by the source or under a name are the forms on record and can include a tag or linker. Residues count along the entry.
UniProt Q8VI56: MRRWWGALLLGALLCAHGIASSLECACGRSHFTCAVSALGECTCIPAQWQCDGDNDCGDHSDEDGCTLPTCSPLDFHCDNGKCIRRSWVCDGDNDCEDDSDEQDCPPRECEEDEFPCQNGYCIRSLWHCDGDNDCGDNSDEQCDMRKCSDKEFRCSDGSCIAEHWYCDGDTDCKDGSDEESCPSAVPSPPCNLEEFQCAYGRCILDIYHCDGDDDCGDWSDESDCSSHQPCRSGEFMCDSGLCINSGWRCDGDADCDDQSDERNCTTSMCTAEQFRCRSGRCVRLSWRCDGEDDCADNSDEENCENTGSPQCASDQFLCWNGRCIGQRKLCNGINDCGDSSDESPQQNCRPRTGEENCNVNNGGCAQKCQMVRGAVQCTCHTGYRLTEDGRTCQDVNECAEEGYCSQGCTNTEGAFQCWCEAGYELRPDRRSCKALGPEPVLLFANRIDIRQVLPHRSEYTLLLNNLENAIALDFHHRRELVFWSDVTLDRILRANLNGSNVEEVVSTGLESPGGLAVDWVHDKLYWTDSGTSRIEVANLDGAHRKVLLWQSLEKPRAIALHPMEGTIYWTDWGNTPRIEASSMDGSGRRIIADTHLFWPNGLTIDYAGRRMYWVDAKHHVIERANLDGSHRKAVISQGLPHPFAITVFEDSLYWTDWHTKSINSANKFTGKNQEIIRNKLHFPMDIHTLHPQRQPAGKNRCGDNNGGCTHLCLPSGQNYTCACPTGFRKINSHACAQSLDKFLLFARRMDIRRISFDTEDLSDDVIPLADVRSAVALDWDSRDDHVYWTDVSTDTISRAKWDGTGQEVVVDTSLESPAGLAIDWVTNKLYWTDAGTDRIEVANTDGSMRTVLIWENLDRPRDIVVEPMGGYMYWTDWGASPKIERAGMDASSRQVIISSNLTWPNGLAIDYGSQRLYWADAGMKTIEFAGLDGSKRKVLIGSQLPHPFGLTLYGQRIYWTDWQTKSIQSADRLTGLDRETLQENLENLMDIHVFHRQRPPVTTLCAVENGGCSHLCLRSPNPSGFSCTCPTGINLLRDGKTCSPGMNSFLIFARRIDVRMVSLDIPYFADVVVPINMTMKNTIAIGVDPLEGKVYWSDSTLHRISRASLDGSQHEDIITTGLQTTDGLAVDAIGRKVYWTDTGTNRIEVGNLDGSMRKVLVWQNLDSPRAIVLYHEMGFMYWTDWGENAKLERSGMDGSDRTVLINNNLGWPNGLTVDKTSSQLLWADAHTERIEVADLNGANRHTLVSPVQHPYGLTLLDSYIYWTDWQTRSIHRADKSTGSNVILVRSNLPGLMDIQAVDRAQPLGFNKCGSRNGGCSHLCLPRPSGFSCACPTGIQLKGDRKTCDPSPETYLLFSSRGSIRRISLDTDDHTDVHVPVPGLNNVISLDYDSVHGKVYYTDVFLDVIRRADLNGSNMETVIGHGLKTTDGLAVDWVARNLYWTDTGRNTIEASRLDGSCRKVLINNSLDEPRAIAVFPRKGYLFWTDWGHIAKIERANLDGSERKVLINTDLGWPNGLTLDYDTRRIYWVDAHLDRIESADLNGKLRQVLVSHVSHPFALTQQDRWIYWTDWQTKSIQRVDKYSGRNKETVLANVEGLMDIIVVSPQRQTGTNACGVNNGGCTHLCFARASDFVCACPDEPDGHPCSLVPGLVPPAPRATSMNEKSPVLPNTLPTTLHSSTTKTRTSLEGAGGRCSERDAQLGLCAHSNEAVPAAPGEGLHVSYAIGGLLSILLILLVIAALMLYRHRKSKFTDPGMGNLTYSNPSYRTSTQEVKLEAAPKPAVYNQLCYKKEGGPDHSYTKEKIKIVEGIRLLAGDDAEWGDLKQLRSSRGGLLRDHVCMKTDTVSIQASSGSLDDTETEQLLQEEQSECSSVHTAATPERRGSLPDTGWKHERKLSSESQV
Lrp4 (full length, overexpressed in HEK293A cells): residues 21-1905 of Q8VI56
Lrp4 ectodomain fused to the constant region of Immunoglobulin G (Lrp4ecto-Fc): residues 21-1725 of Q8VI56

Columns and labels:
[1] = target: Lrp4 ectodomain fused to the constant region of Immunoglobulin G (Lrp4ecto-Fc) (UniProt Q8VI56); experiment: pull-down; cell free: LRP4ecto-Fc from conditioned medium bound to Protein A-Agarose beads, incubated with pre-cleared media of AP-tagged proteins at 4°C overnight, washed four times with PBS, blot with anti-AP antibody
[2] = target: Lrp4 (full length, overexpressed in HEK293A cells) (UniProt Q8VI56); experiment: co-IP; HEK293A cells transfected with full length LRP4 incubated with conditioned media of AP-tagged proteins at 37°C for 1 h, cross-linked with dithiobis[succinimidylpropionate] (250 µM), lysed in 1% Triton X-100 buffer; immunoprecipitation with anti-AP antibody and Protein A-Agarose, blot with anti-Lrp4 antibodies

B1: Dickkopf1 (Dkk1) alkaline phosphatase fusion protein (ligand, UniProt O54908 32-272)
chain: TLNSVLINSNAIKNLPPPLGGAGGQPGSAVSVAPGVLYEGGNKYQTLDNYQPYPCAEDEECGSDEYCSSPSRGAAGVGGVQICLACRKRRKRCMRHAMCCPGNYCKNGICMPSDHSHFPRGEIEESIIENLGNDHNAAAGDGYPRRTTLTSKIYHTKGQEGSVCLRSSDCAAGLCCARHFWSKICKPVLKEGQVCTKHKRKGSHGLEIFQRCYCGEGLACRIQKDHHQASNSSRLHTCQRH
With B1 the binding [1] was “binds” and the binding [2] was “binds”.
